Not every detail of the peptide structures is certain; ends, links or a residue may be inferred. Bridges are numbered along the chain shown (N, C = ends). Where no end group is shown, it is not given here.
Tested on: human sense of taste
Test: Sweetness measured by human sense of taste (20 trained subjects, minimum concentration at which sweetness is first sensed)
Type: in vivo
Protocol: Since the recombinant brazzein according to the present invention is not a sucrose-based compound having a cyclic ring, the sweetness of the recombinant brazzein was not measured using a saccharometer. Therefore, the activity of the recombinant brazzein was measured using the human sense of taste. Sugar content measurement was performed on 20 subjects who were trained to feel substantially the same minimum concentration of sucrose in which they could sense sweetness using a sucrose solution. That is, a concentration of each brazzein variant in which the subjects could sense sweetness for the first time was measured. Also, a sweetness ratio of the sucrose solution to the wild-type brazzein was 1 g/100 ml, which was a minimum stimulation level in which the subjects could sense sweetness. Also, a sweetness ratio of the minor-type brazzein protein to the wild-type brazzein was 500 μg/100 ml, which was a minimum stimulation level in which the subjects could sense sweetness. Therefore, the sweetness was calculated using the sweetness ratios (That is, 1/0.0005=2000 for the minor-type brazzein).
Also, the brazzein multi-variants were measured for activity (sweetness) in the same manner as in Example 3-1.

For “DKCKKVYENYPVSKCQLANQCNYDCKLDKRARSGDCFYDEKRNLQCICDYCEY (disulfide 3-51, 15-36, 21-46, 25-48) [Brazzein H30R_E35D]”, the “Multiples of increased sweetness to minor-type brazzein” value (brazzein multi-variants, relative to minor-type brazzein) was 4, the “Minimum stimulation level in which one senses sweetness for first time” value (brazzein multi-variants, 20 trained subjects) was 1,250 μg/ml and the “Sweetness ratios of sucrose (1 g/100 ml) to brazzein multi-variants” value (relative to 1 g/100 ml sucrose threshold) was 8,000.

From US8592181B2, “Brazzein variant having higher sweetness and method for preparing multi-variant” (Chung-Ang University Industry-Academy Cooperation Foundation, priority 2009, dated 2013)
